Laboratory results taken from paper PMC3072412.
Residue numbers refer to the chain shown, from its start. Names and notes keep the numbering of the source. These are yes or no findings as the source states them, for the method shown. Binding seen in cells or lysates may run through a third protein. Some entries that bind do so weakly or less than the wild type. Sequences can lack the tags named with a protein.

Sequences of proteins named here, by UniProt entry; tags and fusion partners are left off.
UniProt P35222: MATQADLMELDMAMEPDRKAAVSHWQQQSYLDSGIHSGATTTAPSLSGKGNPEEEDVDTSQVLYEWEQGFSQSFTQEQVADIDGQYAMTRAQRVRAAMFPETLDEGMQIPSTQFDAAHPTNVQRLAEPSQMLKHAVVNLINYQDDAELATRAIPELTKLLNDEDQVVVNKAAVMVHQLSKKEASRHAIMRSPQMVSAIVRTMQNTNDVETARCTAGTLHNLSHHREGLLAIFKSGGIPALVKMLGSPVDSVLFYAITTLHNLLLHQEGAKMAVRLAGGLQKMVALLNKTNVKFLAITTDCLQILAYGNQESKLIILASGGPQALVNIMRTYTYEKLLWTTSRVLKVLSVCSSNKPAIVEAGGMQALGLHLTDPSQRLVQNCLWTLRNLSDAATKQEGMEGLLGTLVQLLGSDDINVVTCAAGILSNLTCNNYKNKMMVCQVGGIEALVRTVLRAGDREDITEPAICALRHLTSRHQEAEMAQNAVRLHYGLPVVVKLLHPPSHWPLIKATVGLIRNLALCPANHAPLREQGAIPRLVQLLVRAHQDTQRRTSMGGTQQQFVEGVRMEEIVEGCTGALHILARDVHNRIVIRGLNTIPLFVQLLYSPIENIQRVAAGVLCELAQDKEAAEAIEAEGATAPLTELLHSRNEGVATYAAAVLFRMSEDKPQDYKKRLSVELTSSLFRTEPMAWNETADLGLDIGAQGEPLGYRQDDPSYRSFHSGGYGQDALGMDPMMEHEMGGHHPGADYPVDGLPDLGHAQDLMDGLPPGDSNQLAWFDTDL

Experiments:
[1] = target: T1, 3XFlag-Nkd1 (human Nkd1, wild type) (human) (UniProt Q969G9); assay: co-IP; LUMIER assay in HEK293T cells: luciferase-tagged β-catenin or Dvl2 with 3XFlag-Nkd1 constructs; anti-Flag immunoprecipitation of cell lysates, luciferase activity of the immunoprecipitate
T1 sequence: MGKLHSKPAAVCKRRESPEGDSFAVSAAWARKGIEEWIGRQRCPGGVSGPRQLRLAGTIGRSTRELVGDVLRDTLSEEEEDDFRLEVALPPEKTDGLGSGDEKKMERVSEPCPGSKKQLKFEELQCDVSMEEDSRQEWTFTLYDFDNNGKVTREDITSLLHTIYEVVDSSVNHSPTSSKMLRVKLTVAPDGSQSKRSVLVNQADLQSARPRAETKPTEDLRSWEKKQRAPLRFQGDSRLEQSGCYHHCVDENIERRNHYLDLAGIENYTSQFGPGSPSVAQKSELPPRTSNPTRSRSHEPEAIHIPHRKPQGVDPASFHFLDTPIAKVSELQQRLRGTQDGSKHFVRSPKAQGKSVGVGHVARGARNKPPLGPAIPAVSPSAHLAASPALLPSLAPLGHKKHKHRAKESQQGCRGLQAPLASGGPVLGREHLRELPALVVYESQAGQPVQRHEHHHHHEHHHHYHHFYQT

[2] = target: T2, β-catenin (endogenous zebrafish) (zebrafish (endogenous in zebrafish embryos)) (UniProt F1QGH7); assay: co-IP; lysates of zebrafish embryos injected with nkd1^myc or nkd1^G2A-myc RNA, with or without wnt8 RNA, harvested at dome stage (4.3 hpf); modified Rubenfelds buffer with 0.3% NP-40; immunoprecipitation with anti-zDvl2, anti-myc or anti-β-catenin, western blot
T2 sequence: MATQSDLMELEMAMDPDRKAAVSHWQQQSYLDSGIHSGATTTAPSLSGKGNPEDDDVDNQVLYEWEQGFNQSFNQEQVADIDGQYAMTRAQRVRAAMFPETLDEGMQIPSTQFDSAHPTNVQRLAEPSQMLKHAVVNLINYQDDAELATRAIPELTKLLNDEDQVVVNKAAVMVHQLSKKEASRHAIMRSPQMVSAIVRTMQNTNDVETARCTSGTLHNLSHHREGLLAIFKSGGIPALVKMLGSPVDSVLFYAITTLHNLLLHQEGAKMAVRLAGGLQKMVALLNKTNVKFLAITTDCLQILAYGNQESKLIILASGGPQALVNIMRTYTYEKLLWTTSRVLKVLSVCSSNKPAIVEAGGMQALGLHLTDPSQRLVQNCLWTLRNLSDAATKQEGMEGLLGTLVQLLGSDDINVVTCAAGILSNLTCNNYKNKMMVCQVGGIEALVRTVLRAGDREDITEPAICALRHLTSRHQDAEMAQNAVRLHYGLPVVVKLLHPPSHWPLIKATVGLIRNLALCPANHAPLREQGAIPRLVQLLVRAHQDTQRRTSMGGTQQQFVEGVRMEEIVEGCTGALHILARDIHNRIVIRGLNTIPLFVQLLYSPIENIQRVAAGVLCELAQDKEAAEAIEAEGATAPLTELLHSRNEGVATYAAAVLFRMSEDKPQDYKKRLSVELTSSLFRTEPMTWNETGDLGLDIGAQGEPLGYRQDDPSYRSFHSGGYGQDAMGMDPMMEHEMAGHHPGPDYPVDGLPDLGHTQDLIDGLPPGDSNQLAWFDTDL

[3] = target: T3, Nkd1^myc (zebrafish Naked Cuticle homolog 1, C-terminal myc tag) (zebrafish) (UniProt Q2TJA6); assay: as above
T3 sequence: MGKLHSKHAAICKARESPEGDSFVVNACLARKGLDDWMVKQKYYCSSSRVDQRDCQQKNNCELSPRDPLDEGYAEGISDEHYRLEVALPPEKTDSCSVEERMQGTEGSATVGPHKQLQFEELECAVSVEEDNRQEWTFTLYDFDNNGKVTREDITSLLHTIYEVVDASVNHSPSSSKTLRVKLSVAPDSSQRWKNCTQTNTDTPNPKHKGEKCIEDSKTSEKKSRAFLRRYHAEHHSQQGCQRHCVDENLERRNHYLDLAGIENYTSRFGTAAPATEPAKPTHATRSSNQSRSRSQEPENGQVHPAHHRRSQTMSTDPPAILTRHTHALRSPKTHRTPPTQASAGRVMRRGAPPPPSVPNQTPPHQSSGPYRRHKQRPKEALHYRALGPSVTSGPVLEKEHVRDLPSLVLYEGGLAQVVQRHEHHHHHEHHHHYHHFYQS

[4] = target: T3, Nkd1^myc (zebrafish Naked Cuticle homolog 1, C-terminal myc tag) (zebrafish); assay: co-IP; competition: nkd1^myc co-injected with increasing doses of dsh^HA (0pg, 125pg and 250pg) into zebrafish embryos, harvested at dome stage, immunoprecipitated with anti-myc and western blotted with anti-β-catenin

Molecule: luciferase-tagged β-catenin (β-catenin-Lux) (from UniProt P35222 1-781)
- binding [1]: binds

B1: Nkd1^myc (zebrafish Naked Cuticle homolog 1, C-terminal myc tag) (protein, UniProt Q2TJA6 1-440)
chain: T3 sequence
- binding [2]: binds

B2: Nkd1^G2A-myc (zebrafish Nkd1, glycine 2 to alanine, C-terminal myc tag) (protein, UniProt Q2TJA6 1-440)
chain: T3 sequence with G2A
- binding [2]: binds weakly

B3: β-catenin (endogenous zebrafish) (protein, UniProt F1QGH7 1-780)
chain: T2 sequence
- binding [3]: binds
- binding [4]: binds
